{"source": "patent US20060292140A1", "about": "(published 2006)", "binders": {"B1": {"name": "murine Act-1 monoclonal antibody (antibody, mouse IgG1, V domains shown)", "VH": "QVQLQQPGAELVKPGTSVKLSCKGYGYTFTSYWMHWVKQRPGQGLEWIGEIDPSESNTNYNQKFKGKATLTVDISSSTAYMQLSSLTSEDSAVYYCARGGYDGWDYAIDYWGQGTSVTVSS", "VL": "DVVVTQTPLSLPVSFGDQVSISCRSSQSLAKSYGNTYLSWYLHKPGQSPQLLIYGISNRFSGVPDRFSGSGSGTDFTLKISTIKPEDLGMYYCLQGTHQPYTFGGGTKLEIK", "notes": "Mouse IgG1/kappa from the Act-1 hybridoma; also called mouse Act-1; ACT-1 (murine)"}}, "key": {"[1]": {"target": "lymphocytes from cat (species cross-reactivity study; antigen taken as cat α4β7 integrin) (cat)", "assay": "flow cytometry on cat blood lymphocytes, 15 µg/ml"}, "[2]": {"target": "lymphocytes from dog (species cross-reactivity study; antigen taken as dog α4β7 integrin) (dog)", "assay": "flow cytometry on dog blood lymphocytes, 15 µg/ml"}}, "note": "No constants are given. Whether binding was seen depends on the method and setting. A result given as binding can be weak or reduced; the word gives no strength.", "data": [{"binder": "B1", "values": [{"measurement": "binding", "setting": "[1]", "value": "binds"}, {"measurement": "binding", "setting": "[2]", "value": "binds"}]}]}
